The list shows a part of the results.
compound: C#Cc1cccc(Nc2ncnc3cc(OCCOC)c(OCCOC)cc23)c1 [erlotinib]; test: log2 fold change, soluble protein after heating vs DMSO (PISA); higher = thermal stabilisation; K562 lysate, 10 uM; active = over 0.2 and 3.5 SD of the protein, either way, in both replicates (recomputed)
Procedure, shortened: (§1)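 K562 pellets were dounce-homogenised in PBS pH 7.4 with 1 mM MgCl2, and the crude extract at 1 mg/mL protein was treated with 10 μM compound for 30 min. Aliquots were heated for 3 min across 48°C-58°C, pooled, and brought to 0.5% NP-40 at 4°C; soluble protein was the supernatant after 21,000xg for 90 min. Soluble protein was quantified by TMTpro 16plex LC-MS/MS with channel sums equalised, and reported as log2 fold change in thermal stability against DMSO controls, with values from duplicates.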

Chains of the proteins cited; added tags and fusions are not shown. Lines headed by an entry give the natural chain unless they say otherwise; changes in a name come on top.
UniProt P26599: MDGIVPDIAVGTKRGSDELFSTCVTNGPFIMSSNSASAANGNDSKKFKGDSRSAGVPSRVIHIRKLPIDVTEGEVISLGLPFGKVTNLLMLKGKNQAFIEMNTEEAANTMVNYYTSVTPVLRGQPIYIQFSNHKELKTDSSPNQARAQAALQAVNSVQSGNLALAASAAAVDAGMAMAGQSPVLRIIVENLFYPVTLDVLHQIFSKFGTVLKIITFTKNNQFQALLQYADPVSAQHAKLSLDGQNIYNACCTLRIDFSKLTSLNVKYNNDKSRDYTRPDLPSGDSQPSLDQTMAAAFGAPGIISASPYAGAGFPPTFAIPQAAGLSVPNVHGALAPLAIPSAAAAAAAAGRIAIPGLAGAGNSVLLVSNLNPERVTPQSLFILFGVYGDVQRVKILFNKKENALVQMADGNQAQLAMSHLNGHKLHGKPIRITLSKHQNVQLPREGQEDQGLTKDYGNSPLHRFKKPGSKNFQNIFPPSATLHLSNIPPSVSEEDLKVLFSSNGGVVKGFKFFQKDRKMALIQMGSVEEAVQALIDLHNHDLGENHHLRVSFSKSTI
UniProt Q14289, whole entry, looked up: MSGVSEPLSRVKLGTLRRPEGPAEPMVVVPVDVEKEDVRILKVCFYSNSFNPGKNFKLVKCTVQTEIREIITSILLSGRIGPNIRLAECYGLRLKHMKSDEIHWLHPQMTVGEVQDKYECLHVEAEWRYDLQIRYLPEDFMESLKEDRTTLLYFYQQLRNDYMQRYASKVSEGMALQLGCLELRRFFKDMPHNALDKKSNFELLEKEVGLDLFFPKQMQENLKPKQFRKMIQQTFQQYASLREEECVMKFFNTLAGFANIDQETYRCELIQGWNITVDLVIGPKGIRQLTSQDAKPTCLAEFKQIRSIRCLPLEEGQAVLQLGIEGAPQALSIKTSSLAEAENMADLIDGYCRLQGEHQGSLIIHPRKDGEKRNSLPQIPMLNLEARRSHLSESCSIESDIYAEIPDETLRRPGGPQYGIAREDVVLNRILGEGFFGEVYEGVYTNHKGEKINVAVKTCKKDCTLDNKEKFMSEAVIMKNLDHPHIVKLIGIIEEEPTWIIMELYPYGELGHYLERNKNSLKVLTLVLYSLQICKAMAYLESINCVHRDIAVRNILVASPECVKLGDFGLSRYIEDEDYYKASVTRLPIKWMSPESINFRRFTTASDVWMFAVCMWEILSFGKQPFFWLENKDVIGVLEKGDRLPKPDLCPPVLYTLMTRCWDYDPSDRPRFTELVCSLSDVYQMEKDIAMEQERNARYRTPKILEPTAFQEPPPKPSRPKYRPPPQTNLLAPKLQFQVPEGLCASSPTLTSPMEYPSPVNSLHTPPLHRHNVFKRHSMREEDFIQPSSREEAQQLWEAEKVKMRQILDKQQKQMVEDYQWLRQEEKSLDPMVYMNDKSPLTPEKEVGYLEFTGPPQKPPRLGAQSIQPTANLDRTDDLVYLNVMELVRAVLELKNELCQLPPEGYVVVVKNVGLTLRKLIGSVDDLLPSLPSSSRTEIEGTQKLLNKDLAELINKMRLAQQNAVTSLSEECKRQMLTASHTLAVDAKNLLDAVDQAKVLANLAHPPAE
UniProt Q00577: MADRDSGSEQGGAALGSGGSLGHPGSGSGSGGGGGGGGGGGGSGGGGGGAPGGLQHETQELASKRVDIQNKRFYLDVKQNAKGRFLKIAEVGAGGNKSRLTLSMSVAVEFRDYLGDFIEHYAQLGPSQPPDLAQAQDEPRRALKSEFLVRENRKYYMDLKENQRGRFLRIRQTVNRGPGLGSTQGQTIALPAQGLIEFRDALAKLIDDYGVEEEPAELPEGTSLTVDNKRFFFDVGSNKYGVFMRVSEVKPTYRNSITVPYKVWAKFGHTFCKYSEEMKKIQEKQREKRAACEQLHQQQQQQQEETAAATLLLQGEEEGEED
UniProt O95456: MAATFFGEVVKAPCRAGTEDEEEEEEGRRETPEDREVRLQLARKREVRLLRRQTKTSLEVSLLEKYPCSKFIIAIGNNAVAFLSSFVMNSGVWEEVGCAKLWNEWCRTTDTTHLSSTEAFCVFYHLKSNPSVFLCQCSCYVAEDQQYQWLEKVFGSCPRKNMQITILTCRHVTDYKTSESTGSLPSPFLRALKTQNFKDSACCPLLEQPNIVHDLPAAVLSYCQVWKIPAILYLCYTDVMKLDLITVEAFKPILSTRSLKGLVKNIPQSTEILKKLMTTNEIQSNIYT
UniProt P18433: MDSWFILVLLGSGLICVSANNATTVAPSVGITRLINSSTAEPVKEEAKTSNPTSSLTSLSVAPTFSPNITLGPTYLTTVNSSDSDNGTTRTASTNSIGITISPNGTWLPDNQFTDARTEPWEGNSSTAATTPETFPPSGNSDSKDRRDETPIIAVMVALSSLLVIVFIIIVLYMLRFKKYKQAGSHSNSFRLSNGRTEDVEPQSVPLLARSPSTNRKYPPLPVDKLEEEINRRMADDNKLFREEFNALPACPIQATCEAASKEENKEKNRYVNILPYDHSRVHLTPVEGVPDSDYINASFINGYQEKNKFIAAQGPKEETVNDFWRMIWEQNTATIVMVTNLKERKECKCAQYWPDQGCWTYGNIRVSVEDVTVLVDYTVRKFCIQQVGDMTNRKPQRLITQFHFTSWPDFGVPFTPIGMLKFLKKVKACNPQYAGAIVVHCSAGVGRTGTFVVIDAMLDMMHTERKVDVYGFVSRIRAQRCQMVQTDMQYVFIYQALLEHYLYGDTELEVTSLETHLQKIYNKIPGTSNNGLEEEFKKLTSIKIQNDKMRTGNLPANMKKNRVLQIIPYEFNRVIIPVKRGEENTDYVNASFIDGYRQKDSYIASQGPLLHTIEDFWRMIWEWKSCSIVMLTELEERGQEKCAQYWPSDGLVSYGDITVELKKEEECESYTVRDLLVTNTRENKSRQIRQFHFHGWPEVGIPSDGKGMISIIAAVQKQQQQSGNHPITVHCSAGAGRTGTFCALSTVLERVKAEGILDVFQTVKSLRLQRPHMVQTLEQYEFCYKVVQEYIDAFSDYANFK
UniProt Q5JSZ5: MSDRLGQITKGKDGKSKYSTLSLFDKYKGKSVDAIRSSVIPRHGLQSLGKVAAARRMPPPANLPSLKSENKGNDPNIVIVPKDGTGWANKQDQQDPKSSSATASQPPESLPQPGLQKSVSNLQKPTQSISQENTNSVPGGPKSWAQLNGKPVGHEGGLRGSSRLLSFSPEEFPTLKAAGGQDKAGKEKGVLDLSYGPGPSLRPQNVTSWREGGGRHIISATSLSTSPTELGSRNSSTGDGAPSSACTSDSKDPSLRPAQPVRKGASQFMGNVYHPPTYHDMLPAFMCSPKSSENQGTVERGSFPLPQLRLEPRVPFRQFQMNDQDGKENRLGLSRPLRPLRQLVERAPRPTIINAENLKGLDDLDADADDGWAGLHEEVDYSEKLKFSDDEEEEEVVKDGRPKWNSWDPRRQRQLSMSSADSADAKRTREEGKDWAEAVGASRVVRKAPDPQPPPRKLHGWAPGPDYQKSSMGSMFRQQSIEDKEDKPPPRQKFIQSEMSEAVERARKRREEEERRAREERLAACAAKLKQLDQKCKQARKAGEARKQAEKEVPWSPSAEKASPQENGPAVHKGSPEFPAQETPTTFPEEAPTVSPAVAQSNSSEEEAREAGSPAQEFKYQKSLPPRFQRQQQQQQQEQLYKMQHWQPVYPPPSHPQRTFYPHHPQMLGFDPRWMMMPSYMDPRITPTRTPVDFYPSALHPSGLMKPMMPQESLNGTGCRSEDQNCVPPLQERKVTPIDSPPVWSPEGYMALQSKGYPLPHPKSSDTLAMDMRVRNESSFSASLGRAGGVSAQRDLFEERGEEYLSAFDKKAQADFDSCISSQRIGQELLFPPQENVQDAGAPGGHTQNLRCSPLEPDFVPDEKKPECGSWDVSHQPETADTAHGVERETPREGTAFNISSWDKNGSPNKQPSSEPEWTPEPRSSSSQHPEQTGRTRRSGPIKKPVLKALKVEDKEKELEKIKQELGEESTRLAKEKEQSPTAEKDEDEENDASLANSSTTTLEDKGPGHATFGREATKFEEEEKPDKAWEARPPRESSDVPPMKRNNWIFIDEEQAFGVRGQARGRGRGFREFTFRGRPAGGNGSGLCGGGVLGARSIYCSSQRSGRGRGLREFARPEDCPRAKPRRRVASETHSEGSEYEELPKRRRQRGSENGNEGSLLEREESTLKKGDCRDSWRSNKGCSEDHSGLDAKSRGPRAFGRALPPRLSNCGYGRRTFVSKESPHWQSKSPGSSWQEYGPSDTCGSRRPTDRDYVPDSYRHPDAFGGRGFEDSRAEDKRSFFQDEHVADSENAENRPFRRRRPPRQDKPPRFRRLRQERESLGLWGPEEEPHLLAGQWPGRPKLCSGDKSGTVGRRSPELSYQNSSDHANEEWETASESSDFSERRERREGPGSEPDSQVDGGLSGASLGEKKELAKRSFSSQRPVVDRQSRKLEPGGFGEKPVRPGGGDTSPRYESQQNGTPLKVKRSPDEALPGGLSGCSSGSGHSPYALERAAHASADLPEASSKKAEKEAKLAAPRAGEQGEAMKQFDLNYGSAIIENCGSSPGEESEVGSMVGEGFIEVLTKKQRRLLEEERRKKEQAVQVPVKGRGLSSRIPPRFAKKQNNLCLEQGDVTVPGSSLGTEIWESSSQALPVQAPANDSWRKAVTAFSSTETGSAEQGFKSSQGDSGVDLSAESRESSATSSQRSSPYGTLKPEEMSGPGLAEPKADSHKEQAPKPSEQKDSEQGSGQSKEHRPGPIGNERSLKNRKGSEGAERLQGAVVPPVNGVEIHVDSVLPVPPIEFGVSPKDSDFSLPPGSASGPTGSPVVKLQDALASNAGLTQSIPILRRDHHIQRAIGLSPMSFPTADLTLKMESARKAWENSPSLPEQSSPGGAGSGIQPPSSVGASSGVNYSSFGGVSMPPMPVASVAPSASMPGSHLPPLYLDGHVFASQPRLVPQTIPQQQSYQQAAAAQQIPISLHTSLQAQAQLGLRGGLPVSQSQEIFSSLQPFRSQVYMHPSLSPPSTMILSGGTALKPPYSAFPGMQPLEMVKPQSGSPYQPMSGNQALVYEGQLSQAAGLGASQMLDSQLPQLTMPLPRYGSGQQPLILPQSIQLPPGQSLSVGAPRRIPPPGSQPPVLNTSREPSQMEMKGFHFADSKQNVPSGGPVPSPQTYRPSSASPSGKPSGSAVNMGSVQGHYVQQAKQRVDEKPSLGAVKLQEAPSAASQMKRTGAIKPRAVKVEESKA
UniProt Q9P2W1: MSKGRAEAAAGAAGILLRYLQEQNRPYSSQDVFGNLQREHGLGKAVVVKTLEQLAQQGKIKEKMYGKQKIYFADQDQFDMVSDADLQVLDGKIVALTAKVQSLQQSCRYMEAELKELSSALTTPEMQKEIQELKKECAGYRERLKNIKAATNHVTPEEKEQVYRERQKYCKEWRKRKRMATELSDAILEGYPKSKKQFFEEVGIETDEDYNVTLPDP
UniProt P28066: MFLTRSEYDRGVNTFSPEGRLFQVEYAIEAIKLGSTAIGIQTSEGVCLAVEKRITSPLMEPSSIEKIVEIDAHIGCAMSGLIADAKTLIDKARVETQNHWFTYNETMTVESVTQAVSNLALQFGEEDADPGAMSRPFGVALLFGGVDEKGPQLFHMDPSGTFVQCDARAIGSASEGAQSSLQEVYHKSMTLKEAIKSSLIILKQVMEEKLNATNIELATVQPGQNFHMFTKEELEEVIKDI
UniProt Q15185: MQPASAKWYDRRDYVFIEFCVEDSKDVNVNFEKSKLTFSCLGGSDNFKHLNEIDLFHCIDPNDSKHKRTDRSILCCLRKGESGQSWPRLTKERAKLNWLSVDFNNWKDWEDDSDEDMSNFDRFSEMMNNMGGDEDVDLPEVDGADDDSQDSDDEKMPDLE
UniProt Q7Z6K3: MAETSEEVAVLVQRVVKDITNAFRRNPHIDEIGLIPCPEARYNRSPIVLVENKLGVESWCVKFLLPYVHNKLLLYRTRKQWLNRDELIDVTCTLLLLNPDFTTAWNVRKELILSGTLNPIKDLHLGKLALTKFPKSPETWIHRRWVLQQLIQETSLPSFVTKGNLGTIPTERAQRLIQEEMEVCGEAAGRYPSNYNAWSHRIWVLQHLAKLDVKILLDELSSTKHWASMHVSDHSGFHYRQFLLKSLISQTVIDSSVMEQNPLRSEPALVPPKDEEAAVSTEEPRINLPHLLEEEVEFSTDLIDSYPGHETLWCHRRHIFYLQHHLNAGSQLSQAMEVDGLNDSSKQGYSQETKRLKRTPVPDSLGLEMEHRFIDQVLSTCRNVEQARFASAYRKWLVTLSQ
UniProt Q9Y6M0: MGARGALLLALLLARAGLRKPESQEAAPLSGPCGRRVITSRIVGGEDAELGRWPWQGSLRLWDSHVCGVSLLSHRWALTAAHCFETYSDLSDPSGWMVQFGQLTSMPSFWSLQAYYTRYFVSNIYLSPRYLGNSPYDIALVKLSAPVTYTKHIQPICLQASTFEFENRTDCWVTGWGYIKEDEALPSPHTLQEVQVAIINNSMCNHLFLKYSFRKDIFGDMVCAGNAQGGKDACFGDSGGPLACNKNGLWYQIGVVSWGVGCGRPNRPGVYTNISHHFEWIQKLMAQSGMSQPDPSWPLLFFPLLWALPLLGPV

log2 fold change, inactive:
PSMD14 (UniProt O00487) 0.011
PTBP1 (UniProt P26599) 0.009
PSMB1 (UniProt P20618) 0
PTRHD1 (UniProt Q6GMV3) 0.03
PTK2B (UniProt Q14289) 0.024
PURA (UniProt Q00577) -0.042
PTMA (UniProt P06454) -0.002
PUS7 isoform 2 (UniProt Q96PZ0) -0.01
PSAT1 (UniProt Q9Y617) -0.011
PRUNE1 (UniProt Q86TP1) 0.025
PSMG1 (UniProt O95456) -0.011
PVR (UniProt P15151) -0.045
PSMD6 isoform 4 (UniProt Q15008) -0.012
PTPRA (UniProt P18433) -0.017
PTGES2 (UniProt Q9H7Z7) 0.008
PSMA2 (UniProt P25787) 0.007
PTPA isoform 2 (UniProt Q15257) 0.005
PUS10 (UniProt Q3MIT2) -0.014
PRRC2B (UniProt Q5JSZ5) -0.034
PSMC3IP (UniProt Q9P2W1) -0.008
PSMA5 (UniProt P28066) 0.002
PSMC4 (UniProt P43686) 0.012
PTGES3 (UniProt Q15185) 0.034
PTK7 isoform 6 (UniProt Q13308) -0.028
PSMD7 (UniProt P51665) -0.003
PSMB7 (UniProt Q99436) -0.006
PTAR1 (UniProt Q7Z6K3) 0.009
PTS (UniProt Q03393) -0.018
PSRC1 (UniProt Q6PGN9) -0.022
PTRH2 (UniProt Q9Y3E5) -0.005
PRSS21 (UniProt Q9Y6M0) 0
PSME1 (UniProt Q06323) 0.01

compound: C/C(=N\NC(=O)C1=CC(=CC=C1)S(=O)(=O)N2CCOCC2)/C3=C(C=CC(=C3)Cl)O; test: as above
Procedure, shortened: as §1

log2 fold change, inactive:
PSMD14 (UniProt O00487) 0.065
PTBP1 (UniProt P26599) 0.003
PSMB1 (UniProt P20618) -0.065
PTRHD1 (UniProt Q6GMV3) 0.052
PTK2B (UniProt Q14289) -0.012
PURA (UniProt Q00577) -0.134
PTMA (UniProt P06454) 0.062
PUS7 isoform 2 (UniProt Q96PZ0) -0.032
PSAT1 (UniProt Q9Y617) 0.009
PRUNE1 (UniProt Q86TP1) -0.041
PSMG1 (UniProt O95456) -0.024
PVR (UniProt P15151) -0.191
PSMD6 isoform 4 (UniProt Q15008) 0.013
PTPRA (UniProt P18433) 0
PTGES2 (UniProt Q9H7Z7) 0.056
PSMA2 (UniProt P25787) 0.023
PTPA isoform 2 (UniProt Q15257) 0.018
PUS10 (UniProt Q3MIT2) 0.068
PRRC2B (UniProt Q5JSZ5) 0.005
PSMC3IP (UniProt Q9P2W1) 0.005
PSMA5 (UniProt P28066) -0.031
PSMC4 (UniProt P43686) 0.008
PTGES3 (UniProt Q15185) 0.013
PTK7 isoform 6 (UniProt Q13308) -0.1
PSMD7 (UniProt P51665) -0.087
PSMB7 (UniProt Q99436) 0.021
PTAR1 (UniProt Q7Z6K3) 0.036
PTS (UniProt Q03393) -0.112
PSRC1 (UniProt Q6PGN9) 0.005
PTRH2 (UniProt Q9Y3E5) 0
PRSS21 (UniProt Q9Y6M0) -0.021
PSME1 (UniProt Q06323) 0.02

compound: C1=CC(=CC=C1C2=NC3=C(N2)C=C(C=C3)C(=O)N)OC4=CC=C(C=C4)Cl; test: as above
Procedure, shortened: as §1

log2 fold change, inactive:
PSMD14 (UniProt O00487) -0.013
PTBP1 (UniProt P26599) -0.003
PSMB1 (UniProt P20618) 0.053
PTRHD1 (UniProt Q6GMV3) -0.024
PTK2B (UniProt Q14289) 0.001
PURA (UniProt Q00577) 0.048
PTMA (UniProt P06454) 0.067
PUS7 isoform 2 (UniProt Q96PZ0) 0.017
PSAT1 (UniProt Q9Y617) 0.023
PRUNE1 (UniProt Q86TP1) 0.007
PSMG1 (UniProt O95456) 0.043
PVR (UniProt P15151) 0.017
PSMD6 isoform 4 (UniProt Q15008) 0.002
PTPRA (UniProt P18433) 0.053
PTGES2 (UniProt Q9H7Z7) -0.133
PSMA2 (UniProt P25787) 0.012
PTPA isoform 2 (UniProt Q15257) -0.011
PUS10 (UniProt Q3MIT2) -0.002
PRRC2B (UniProt Q5JSZ5) 0.054
PSMC3IP (UniProt Q9P2W1) -0.006
PSMA5 (UniProt P28066) 0.027
PSMC4 (UniProt P43686) -0.012
PTGES3 (UniProt Q15185) -0.005
PTK7 isoform 6 (UniProt Q13308) 0.017
PSMD7 (UniProt P51665) 0.02
PSMB7 (UniProt Q99436) 0.038
PTAR1 (UniProt Q7Z6K3) 0.067
PTS (UniProt Q03393) -0.018
PSRC1 (UniProt Q6PGN9) -0.049
PTRH2 (UniProt Q9Y3E5) 0.05
PRSS21 (UniProt Q9Y6M0) 0.067
PSME1 (UniProt Q06323) 0.018

Source: the supplement of paper PMC10849652
